# System: K562
# Test: Cytotoxicity against human K562 cells after 72 hrs by MTT assay
# Format: functional, cell-based
# Conditions: K562, 72 h
# Method in brief: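 Parental human K562 leukaemia cells in exponential growth (3-5 × 10^5 cells/mL) seeded at 3000 cells/well. Compound alone, doxorubicin, or both added from 10^-2 M DMSO stocks diluted in complete medium. Incubated 72 h at 37 °C in 5% CO2, then MTT for 3 h. Formazan dissolved in DMSO, A540 read, IC50 versus untreated control taken from plots; quadruplicate cultures.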
smiles,measurement,value
COc1cccc2c1C(=O)c1c(O)c3c(c(O)c1C2=O)C[C@@](O)(C(=O)CO)C[C@@H]3O[C@H]1C[C@H](N)[C@H](O)[C@H](C)O1 [DOXORUBICIN],IC50,30 nM

# Source: ChEMBL document CHEMBL2311325, “New structure-activity relationship studies in a series of N,N-bis(cyclohexanol)amine aryl esters as potent reversers of P-glycoprotein-mediated multidrug resistance (MDR)” (Bioorg Med Chem, 2013)
